Experimental data reported in PubChem BioAssay AID493014 (National Center for Advancing Translational Sciences (NCATS), 2011).
Some of the results follow. These are further read-outs of the screen, such as a control signal, another cell line or another target. No call is given for them. The list favours compounds with an active or inconclusive main result. The note in brackets gives the kind of curve behind each potency; many fits are weak.

Assay: qHTS Assay to Find Inhibitors of Chronic Active B-Cell Receptor Signaling
Conditions: ABC-DLBCL IkBa-CBG/CBR reporter, luminescence ratio (green luciferase fused to IkBa over red control in TMD8 lymphoma cells), 4 h
How it was run: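 Concentration-response series (up to 46 uM) were applied to TMD8 dual-reporter cells for 4 h at 37C with doxycycline. Green/red ratio, after filter-overlap correction, defined %Activity; red signal alone was normalised to basal cells and zero luminescence.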

[1] = measured here: CBR red luminescence, cell number
[2] = measured here: IkBa-CBG green luminescence

SMILES	AC50 [1]	AC50 [2]
Nc1c(C(=O)Nc2ccc3c(c2)OCCO3)nnn1Cc1ccccc1	32.6 µM [falling, single point]	–
COc1ccccc1NC(=O)c1sc(NC(=O)c2ccco2)c(C#N)c1C	18.4 µM [falling, partial curve, poor fit]	–
CCn1c(=NC(=O)CSCC(=O)Nc2nccs2)sc2ccccc21	29.1 µM [rising, single point]	–
Cc1nc2cc(NC(=O)NCc3ccc4c(c3)OCO4)ccc2o1	18.4 µM [falling, partial curve, poor fit]	–
CCOC(=O)Cn1c(=NC(=O)c2cc(-c3cccs3)nc3ccccc23)sc2cc(S(N)(=O)=O)ccc21	11.6 µM [falling, partial curve, poor fit]	–
CCOC(=O)C(NC(=O)CC)(Nc1ccc(S(=O)(=O)Nc2ncccn2)cc1)C(F)(F)F (stereo not given)	0.631 µM [falling, partial curve, poor fit]	–
O=C(c1cc(-c2ccc(O)cc2)on1)N1CCOCC1	10 µM [falling, partial curve]	–
Cc1ccc(C(=O)Nc2cccc(C(=O)NCc3ccco3)c2)cc1	4.61 µM [falling, partial curve, poor fit]	–
COC(=O)c1ccc(CNC(=O)Cn2cnc3c(NCc4ccccc4)ncnc32)cc1	–	25.9 µM [falling, partial curve]
CCOc1ccc(S(=O)(=O)Nc2ccc(C(=O)NCc3ccncc3)cc2)cc1	1.46 µM [rising, partial curve]	–
COc1ccc(C2=CC(c3ccco3)n3ncnc3N2)cc1 (stereo not given)	35.5 µM [falling, single point]	–
Cc1nc(NC(=O)c2ccccc2)sc1-c1csc(N)n1	12.6 µM [falling, partial curve, poor fit]	–
O=C1CCC(C(=O)O)N1 (stereo not given)	4.47 µM [rising, partial curve, poor fit]	–
COC(=O)CCCC(=O)N1CCC(n2nccc2NC(=O)CCOc2ccccc2)CC1	14.1 µM [falling, partial curve, poor fit]	–
COc1ccc(NC(=S)NCCSc2ccc(Cl)cc2)c(OC)c1	16.4 µM [falling, partial curve]	–
COc1ccc(-c2coc3cc(OC)cc(O)c3c2=O)cc1	1.12 µM [rising, full curve]	–
Cc1ccc2c(COC(=O)c3ccccc3Cl)cc(=O)oc2c1	0.794 µM [rising, full curve, poor fit]	–
O=C(COC(=O)CNC(=O)c1ccco1)Nc1ccc(Cl)cn1	0.651 µM [falling, full curve, poor fit]	–
CC(C)[C@@H]1NC(=O)c2cc([N+](=O)[O-])cc(I)c2NCCC[C@@H](C(N)=O)NC(=O)[C@H](CO)NC1=O	0.461 µM [rising, full curve, poor fit]	–
O=C(Cn1nc([N+](=O)[O-])nc1Br)NC(c1ccccc1)c1ccccc1	18.4 µM [falling, partial curve, poor fit]	–
CCC12CCCN3CCc4c(n(c5ccccc45)C(O)(C(=O)OC)C1)C32 (stereo not given)	14.1 µM [falling, single point]	–

SMILES	AC50 [1]	AC50 [2]
C=CCN(c1ccccc1)S(=O)(=O)c1cccc(C(=O)O)c1	3.66 µM [rising, partial curve, poor fit]	–
O=C(Nc1nnc(/C=C/c2ccccc2)s1)c1ccco1	0.447 µM [rising, full curve, poor fit]	–
COc1ccccc1-n1cc(CN2CCN(C3CCCCC3)C(CCO)C2)cn1 (stereo not given)	4.47 µM [rising, partial curve, poor fit]	–
COc1ccc(S(=O)(=O)N2CCOCC2)cc1NC(=O)COc1ccc(C)cc1	0.82 µM [rising, full curve, poor fit]	–
O=C(NCCNc1ccc2ccccc2c1)c1cccn2c(=O)c3sccc3nc12	3.16 µM [falling, full curve, poor fit]	–
Cc1ccc(NC(=O)Cn2cccc2)c(C)c1	2.31 µM [rising, full curve, poor fit]	–
COc1cc(/C=N/NC(=O)c2ccc3nc[nH]c3c2)ccc1O	5.62 µM [falling, full curve, poor fit]	–
Cc1cccc(NC(=O)c2cccnc2Cl)n1	10 µM [falling, partial curve]	–
CCN(C[C@H]1N[C@@](CC)(C(=O)OC)[C@H]2C(=O)N(Cc3ccccc3)C(=O)[C@@H]12)S(=O)(=O)c1ccc(OC(F)(F)F)cc1	9.2 µM [falling, partial curve, poor fit]	–
Cc1nn(-c2cc(N3CCOCC3)ccc2[N+](=O)[O-])c(=O)c2ccccc12	29.1 µM [rising, single point]	–
c1ccc2c(-c3csc(-c4ccncc4)n3)c[nH]c2c1	15.8 µM [falling, single point]	10 µM [falling, partial curve]
O=C1NCC(O)=C1C=Nc1ccccc1O	35.5 µM [falling, single point]	–
C=CCN1C(=O)C2(OCCO2)c2cc(C)ccc21	0.1 µM [rising, full curve, poor fit]	–
CS(=O)(=O)Nc1ccc(C(=O)Nc2ccc3c(c2)OCO3)cc1	20 µM [falling, single point]	–
CC(=O)Nc1ccc(C2=CC(=O)CC(C)(C)C2)cc1	14.6 µM [rising, partial curve, poor fit]	–
CSc1ccccc1NC(=O)CN(C)S(=O)(=O)c1ccc(F)cc1	25.9 µM [rising, single point]	–
COc1ccccc1Nc1ncccc1[N+](=O)[O-]	12.6 µM [falling, partial curve]	–
COc1ccc(CNC(=O)c2ccc3c(c2)N(C)CCS3)cc1	15.8 µM [falling, partial curve, poor fit]	–
O=C(Nc1ccc2nc3n(c(=O)c2c1)CCCCC3)c1ccccc1Cl	17.8 µM [falling, partial curve, poor fit]	–
CCCN(CCC)CCNC(=O)C1CC(=O)N(c2ccc(OC)cc2)C1c1ccc(OC)cc1 (stereo not given)	6.31 µM [rising, single point]	–
O=C(CCNS(=O)(=O)/C=C/c1ccccc1)NCCc1c[nH]c2ccccc12	20 µM [falling, partial curve, poor fit]	–

SMILES	AC50 [1]	AC50 [2]
NNc1nc2ccccc2c(=O)n1Cc1ccccc1	11.2 µM [falling, partial curve]	–
CCc1nc(SCc2nc3ccccc3[nH]2)c2oc3ccccc3c2n1	6.51 µM [falling, single point]	–
O=C1CCN(S(=O)(=O)c2ccccc2)CCN1CCOCc1ccc(C(F)(F)F)cc1	35.5 µM [falling, single point]	–
Cc1cc(SCC(=O)c2cccs2)nc2ccccc12	23.1 µM [falling, single point]	–
O=C(/C=C/Nc1ccccc1Oc1ccccc1)c1ccco1	15.8 µM [falling, partial curve, poor fit]	–
Cc1ccccc1-n1c(C)cc(/C=N/NC(=O)c2ccncc2)c1C	35.5 µM [falling, single point]	–
O=C(N/N=C/C(Br)=C\c1ccccc1)c1n[nH]c2c1CCC2	6.51 µM [rising, partial curve, poor fit]	0.291 µM [falling, full curve]
CCOc1ccc(C(=O)NC(C)(C)CC)cc1	22.4 µM [rising, single point]	–
COc1cc(N)c(Cl)cc1C(=O)OCC(=O)NCc1cccs1	25.9 µM [rising, single point]	–
CC(C)CN(C(=O)COC(=O)C(C)N1C(=O)c2ccccc2C1=O)c1c(N)n(Cc2ccccc2)c(=O)[nH]c1=O (stereo not given)	1.64 µM [rising, partial curve, poor fit]	–
COc1ccc(-c2c(C#Cc3ccc(N(C)C)cc3)c3ccccc3n2C)cc1	13 µM [rising, partial curve]	–
CN(C)S(=O)(=O)n1cc(/C=C(\NC(=O)c2ccccc2Cl)C(=O)N2CCCC2)c2ccccc21	3.16 µM [falling, partial curve, poor fit]	–
CSc1ncccc1C(=O)Nc1nc2c(C)cccc2s1	8.2 µM [falling, partial curve, poor fit]	–
O=C(Cc1ccccc1)Nc1cccc([N+](=O)[O-])c1	6.31 µM [rising, full curve, poor fit]	–
CCOc1ccccc1/C=C/c1onc(C)c1S(=O)(=O)N1CCC(C(=O)N2CCCCC2)CC1	1.41 µM [rising, full curve, poor fit]	–
COC(=O)c1sc(NC(=O)c2ccncc2)nc1C	11.2 µM [falling, partial curve]	–
C/C(=N\NC(=O)C1(C)NC(C)(C)Cc2ccccc21)c1ccccc1 (stereo not given)	35.5 µM [falling, partial curve, poor fit]	–
CCN1CCN(CCCCOc2ccccc2F)CC1	14.6 µM [rising, single point]	–
CCCCOc1ccc(-c2nc(=S)[nH][nH]2)cc1	1.64 µM [falling, partial curve, poor fit]	–
COC(=O)c1ccc(Oc2nc(SC)nc(N(C)C)n2)cc1	3.55 µM [falling, partial curve, poor fit]	–
O=S(=O)(Nc1nc2ccccc2nc1N1CCc2ccccc2C1)c1ccc(Br)cc1	11.6 µM [falling, partial curve, poor fit]	–

Record cards (already shown):
O=C(Cc1ccccc1)Nc1cccc([N+](=O)[O-])c1 is listed as AC50 [1]: 6.31 µM [rising, full curve, poor fit]
COC(=O)c1ccc(CNC(=O)Cn2cnc3c(NCc4ccccc4)ncnc32)cc1 is listed as AC50 [2]: 25.9 µM [falling, partial curve]
